Experimental data: PubChem BioAssay AID1259260 (Sanger Institute, 2017)
This is an unselected part of 794 reagents. 13 of them (1.6%) count as active. 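Calls reflect only knock-down without drug; synergy above 0.15 was grouped apart and does not change the call.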 A number with no mark means an inactive call. Viability is capped at 1. Further read-outs or replicates are left out here. No sequences are given here. Not given: the amount of reagent, the time to read-out.

- Aim: 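Essential and drug-synergistic kinases in a colorectal cancer cell line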 (primary screen)
- Cell system: human NCI-H716 colorectal cancer cells
- Knock-down reagent: siRNA pool against human genes
- Conditions: anchor drugs BYL719 (alpelisib) 1 µM, cetuximab 5 µg/ml or trametinib 10 nM, each at a dose chosen to harm viability only mildly; DMSO vehicle for the knock-down-alone arm
- Read-out: 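Mean viability over replicates against non-targeting siRNA, robust z-score without drug, and per-drug synergy comparing combined with single treatments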
- Direction: viability robust z-score, siRNA alone: higher = more surviving cells; below -3 called essential; viability vs control, no drug: higher = more surviving cells
- Units: viability vs control, no drug in fraction of control
- Hit rule: 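a knock-down counts as essential if its no-drug robust z-score is lower than -3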
- Calls: active = essential (knock-down alone lowers viability); inactive = no essential effect

What did the screen give for PIK3CB?
viability robust z-score, siRNA alone: -0.31; viability vs control, no drug: 0.905

What did the screen give for STK31?
viability robust z-score, siRNA alone: -0.192; viability vs control, no drug: 0.917

For UCK2, what was measured?
viability robust z-score, siRNA alone: 0.602; viability vs control, no drug: 1

With GSK3B, how do the results read?
viability robust z-score, siRNA alone: 0.602; viability vs control, no drug: 1

For MAP3K6, what was measured?
viability robust z-score, siRNA alone: 0.602; viability vs control, no drug: 1

Which result is listed for VRK3?
viability robust z-score, siRNA alone: 0.602; viability vs control, no drug: 1

With NEK4, what does the deposit list?
viability robust z-score, siRNA alone: 0.268; viability vs control, no drug: 0.965

For SPHK1, how do the results read?
viability robust z-score, siRNA alone: 0.602; viability vs control, no drug: 1

With ADGRL2, how do the results read?
viability robust z-score, siRNA alone: 0.602; viability vs control, no drug: 1

What did the screen give for GRK3?
viability robust z-score, siRNA alone: 0.602; viability vs control, no drug: 1

With TAOK2, what does the deposit list?
viability robust z-score, siRNA alone: 0.602; viability vs control, no drug: 1

What did the screen give for DAPK1?
viability robust z-score, siRNA alone: 0.602; viability vs control, no drug: 1

How did the screen score HK2?
viability robust z-score, siRNA alone: -1.5; viability vs control, no drug: 0.781

What did the screen give for PRKCZ?
viability robust z-score, siRNA alone: -1.41; viability vs control, no drug: 0.791

For PKN3, how do the results read?
viability robust z-score, siRNA alone: -1.05; viability vs control, no drug: 0.828

What is on record for RET?
viability robust z-score, siRNA alone: -1.64; viability vs control, no drug: 0.767

With CAMK1D, what was measured?
viability robust z-score, siRNA alone: -1.16; viability vs control, no drug: 0.817

Which result is listed for KIT?
viability robust z-score, siRNA alone: 0.602; viability vs control, no drug: 1

For GUCY2D, what does the deposit list?
viability robust z-score, siRNA alone: -3.49 (active); viability vs control, no drug: 0.574

With DLG2, how do the results read?
viability robust z-score, siRNA alone: 0.602; viability vs control, no drug: 1

What is on record for PCK2?
viability robust z-score, siRNA alone: 0.602; viability vs control, no drug: 1

What is on record for NTRK1?
viability robust z-score, siRNA alone: -0.178; viability vs control, no drug: 0.919

Which result is listed for STK32C?
viability robust z-score, siRNA alone: 0.602; viability vs control, no drug: 1

With PLK4, what does the deposit list?
viability robust z-score, siRNA alone: -1.14; viability vs control, no drug: 0.819

Called active, of those listed so far:
GUCY2D — viability robust z-score, siRNA alone: -3.49 (active); viability vs control, no drug: 0.574

Continued.
Which result is listed for LMTK2?
viability robust z-score, siRNA alone: 0.602; viability vs control, no drug: 1

With CKS1B, what does the deposit list?
viability robust z-score, siRNA alone: -0.36; viability vs control, no drug: 0.9

For CDKL3, what does the deposit list?
viability robust z-score, siRNA alone: 0.602; viability vs control, no drug: 1

Which result is listed for TRIB2?
viability robust z-score, siRNA alone: -1.38; viability vs control, no drug: 0.794

With PFKP, what was measured?
viability robust z-score, siRNA alone: -2.29; viability vs control, no drug: 0.699

With PRKAR2B, how do the results read?
viability robust z-score, siRNA alone: -1.07; viability vs control, no drug: 0.826

What is on record for PRKCA?
viability robust z-score, siRNA alone: 0.38; viability vs control, no drug: 0.977

With NPR2, what does the deposit list?
viability robust z-score, siRNA alone: 0.602; viability vs control, no drug: 1

Which result is listed for EFNA4?
viability robust z-score, siRNA alone: -0.694; viability vs control, no drug: 0.865

For STK35, how do the results read?
viability robust z-score, siRNA alone: 0.602; viability vs control, no drug: 1

How did the screen score CNOT1?
viability robust z-score, siRNA alone: -2.62; viability vs control, no drug: 0.666

For NME3, what was measured?
viability robust z-score, siRNA alone: 0.602; viability vs control, no drug: 1
